From article PMC3781154
Results are given in words; binding and its absence hold for the method and conditions named. Binding seen in cells or lysates may run through a third protein. Some binding calls cover weakened binding; strength is not graded here. Sequences can lack the tags named with a protein.

Target: T1, FLAG-ZNF395 (human) (UniProt Q9H8N7)
T1 sequence: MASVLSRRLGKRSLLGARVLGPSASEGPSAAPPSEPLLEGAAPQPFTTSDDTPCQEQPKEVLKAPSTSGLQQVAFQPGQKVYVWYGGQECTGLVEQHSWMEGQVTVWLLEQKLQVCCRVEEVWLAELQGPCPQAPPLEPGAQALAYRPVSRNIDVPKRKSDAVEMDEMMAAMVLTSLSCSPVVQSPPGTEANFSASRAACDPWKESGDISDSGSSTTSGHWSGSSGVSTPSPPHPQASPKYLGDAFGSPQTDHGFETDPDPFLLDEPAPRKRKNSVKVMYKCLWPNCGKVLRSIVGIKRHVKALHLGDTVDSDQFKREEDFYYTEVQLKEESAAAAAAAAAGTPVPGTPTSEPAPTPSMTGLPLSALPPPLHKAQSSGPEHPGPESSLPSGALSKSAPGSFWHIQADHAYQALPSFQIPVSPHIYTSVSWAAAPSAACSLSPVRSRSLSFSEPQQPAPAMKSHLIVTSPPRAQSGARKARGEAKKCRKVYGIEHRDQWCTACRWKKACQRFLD
Assay: co-IP; C33A cells co-transfected with vectors for FLAG-ZNF395 and HA-IKKα or HA-IKKβ; total cell extracts; precipitation with M2-FLAG agarose, immunoblot with anti-HA and anti-FLAG antibody

- binding: binds
B1: HA-IKKβ (enzyme, UniProt O14920 1-756)
chain: MSWSPSLTTQTCGAWEMKERLGTGGFGNVIRWHNQETGEQIAIKQCRQELSPRNRERWCLEIQIMRRLTHPNVVAARDVPEGMQNLAPNDLPLLAMEYCQGGDLRKYLNQFENCCGLREGAILTLLSDIASALRYLHENRIIHRDLKPENIVLQQGEQRLIHKIIDLGYAKELDQGSLCTSFVGTLQYLAPELLEQQKYTVTVDYWSFGTLAFECITGFRPFLPNWQPVQWHSKVRQKSEVDIVVSEDLNGTVKFSSSLPYPNNLNSVLAERLEKWLQLMLMWHPRQRGTDPTYGPNGCFKALDDILNLKLVHILNMVTGTIHTYPVTEDESLQSLKARIQQDTGIPEEDQELLQEAGLALIPDKPATQCISDGKLNEGHTLDMDLVFLFDNSKITYETQISPRPQPESVSCILQEPKRNLAFFQLRKVWGQVWHSIQTLKEDCNRLQQGQRAAMMNLLRNNSCLSKMKNSMASMSQQLKAKLDFFKTSIQIDLEKYSEQTEFGITSDKLLLAWREMEQAVELCGRENEVKLLVERMMALQTDIVDLQRSPMGRKQGGTLDDLEEQARELYRRLREKPRDQRTEGDSQEMVRLLLQAIQSFEKKVRVIYTQLSKTVVCKQKALELLPKVEEVVSLMNEDEKTVVRLQEKRQKELWNLLKIACSKVRGPVSGSPDSMNASRLSQPGQLMSQPSTASNSLPEPAKKSEELVAEAHNLCTLLENAIQDTVREQDQSFTALDWSWLQTEEEEHSCLEQAS
